Data source: PubChem BioAssay AID1259254 (NCATS, 2017)

Assay: 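Finding genes that stop cells copying their DNA twice in one cycle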 (primary screen)
Cell system: human HCT116 colorectal cancer cells
Reagents: single siRNA against human genes
Timing: 3 days
Measurement: 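Nuclei stained with Hoechst and imaged; cell-cycle phase assigned by DNA content; G2 share scaled per plate, non-targeting siRNA 0%, GMNN siRNA 100%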
Scale: G2 robust z-score: higher = more G2 cells, more excess DNA replication
Active means: 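Active siRNAs have a G2 robust z of 5 or more median absolute deviations over the median, which in these data means about 38% or higher of GMNN control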
Shown is an unselected part of about 59,000 deposited reagents. About 1,550 of all reagents (2.6%) count as active. 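G2 share is only a proxy for re-replication; each gene was hit by three separate siRNAs, and active genes were retested.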 The numbers tell different reagents against one gene apart. Not all columns of the deposit are shown. Not stated in the record: the amount of reagent.

NUP58 #1 — G2 robust z-score = 0.963; Outcome = inactive
NUP58 #2 — G2 robust z-score = 0.0886; Outcome = inactive
NUP58 #3 — G2 robust z-score = 0.444; Outcome = inactive
CD79A #1 — G2 robust z-score = 0.69; Outcome = inactive
CD79A #2 — G2 robust z-score = -1.1; Outcome = inactive
CD79A #3 — G2 robust z-score = -0.91; Outcome = inactive
KRABD5P1 #1 — G2 robust z-score = 0.345; Outcome = inactive
KRABD5P1 #2 — G2 robust z-score = -0.0729; Outcome = inactive
KRABD5P1 #3 — G2 robust z-score = 0.269; Outcome = inactive
CCDC97 #1 — G2 robust z-score = 1.34; Outcome = inactive
CCDC97 #2 — G2 robust z-score = -0.492; Outcome = inactive
CCDC97 #3 — G2 robust z-score = -0.268; Outcome = inactive
ALDH7A1 #1 — G2 robust z-score = 0.397; Outcome = inactive
ALDH7A1 #2 — G2 robust z-score = 5.4; Outcome = active
ALDH7A1 #3 — G2 robust z-score = -0.492; Outcome = inactive
LOC643962 (retired record) #1 — G2 robust z-score = 0.307; Outcome = inactive
LOC643962 (retired record) #2 — G2 robust z-score = -0.749; Outcome = inactive
LOC643962 (retired record) #3 — G2 robust z-score = 2.05; Outcome = inactive
STARD7-AS1 #1 — G2 robust z-score = -0.329; Outcome = inactive
STARD7-AS1 #2 — G2 robust z-score = -0.912; Outcome = inactive
STARD7-AS1 #3 — G2 robust z-score = -0.558; Outcome = inactive
OR2AG2 #1 — G2 robust z-score = 2.63; Outcome = inactive
OR2AG2 #2 — G2 robust z-score = 0.263; Outcome = inactive
OR2AG2 #3 — G2 robust z-score = 0.345; Outcome = inactive
PDE1C #1 — G2 robust z-score = -1.09; Outcome = inactive
PDE1C #2 — G2 robust z-score = -0.989; Outcome = inactive
PDE1C #3 — G2 robust z-score = 2.42; Outcome = inactive
PDZD2 #1 — G2 robust z-score = -0.325; Outcome = inactive
PDZD2 #2 — G2 robust z-score = 0.479; Outcome = inactive
PDZD2 #3 — G2 robust z-score = 3.03; Outcome = inactive

Reformatted: results already given
{"gene":"NUP58","reagent no.":3,"G2 robust z-score":0.444,"Outcome":"inactive"}
{"gene":"CD79A","reagent no.":1,"G2 robust z-score":0.69,"Outcome":"inactive"}
{"gene":"CD79A","reagent no.":2,"G2 robust z-score":-1.1,"Outcome":"inactive"}
{"gene":"CD79A","reagent no.":3,"G2 robust z-score":-0.91,"Outcome":"inactive"}
